Consider one molecule from patent US20110091477A1.

The target of this assay is T1, HGFA (Val373-Ser655) (human) (UniProt Q04756).
T1 sequence: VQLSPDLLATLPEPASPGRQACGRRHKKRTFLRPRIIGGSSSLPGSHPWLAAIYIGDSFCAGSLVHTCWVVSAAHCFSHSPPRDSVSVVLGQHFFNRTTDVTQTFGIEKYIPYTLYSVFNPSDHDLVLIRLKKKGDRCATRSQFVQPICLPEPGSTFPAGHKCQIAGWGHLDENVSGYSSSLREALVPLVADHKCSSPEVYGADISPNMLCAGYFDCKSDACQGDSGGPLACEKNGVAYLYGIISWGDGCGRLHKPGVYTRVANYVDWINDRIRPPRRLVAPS
Nature of the assay: SPR (BIAcore) competition: HGFA with KD1 at 0, 2.5 or 10 nM injected over immobilised Ab40; competitor Ab40. For orientation: SPR reads the build-up and loss of mass on a sensor chip optically.

Results are given in words; binding and its absence hold for the method and conditions named. Some entries that bind do so weakly or less than the wild type.

B1: Kunitz domain inhibitor KD1 (protein, UniProt O43278 246-303, looked up)
chain: TEDYCLASNKVGRCRGSFPRWYYDPTEQICKSFVYGGCLGNKNNYLREEECILACRGV
modifications: biotinylated in the competition ELISA
Consider B1, for which the binding result is “binds”.
